Assay results: the supplement of paper PMC12819154, “High-throughput peptide-centric local stability assay extends protein–ligand identification to membrane proteins, tissues and bacteria” (Nature Structural & Molecular Biology, 2025)
The other results are listed elsewhere or left out. Most entries show no effect beyond the scatter of the controls.

Amino acid sequences for entries named in this document (tags omitted). A change or cut given only in a name is not applied to a line headed by its entry.
UniProt Q8NBA8: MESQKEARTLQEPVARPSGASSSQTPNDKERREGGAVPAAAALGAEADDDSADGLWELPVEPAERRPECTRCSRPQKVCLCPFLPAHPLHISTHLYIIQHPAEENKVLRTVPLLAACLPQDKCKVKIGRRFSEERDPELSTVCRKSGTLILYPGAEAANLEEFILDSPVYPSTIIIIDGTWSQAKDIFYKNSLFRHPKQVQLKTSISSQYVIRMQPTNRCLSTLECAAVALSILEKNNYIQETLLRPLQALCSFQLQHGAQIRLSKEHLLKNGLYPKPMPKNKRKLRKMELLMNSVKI
UniProt Q8NCA9: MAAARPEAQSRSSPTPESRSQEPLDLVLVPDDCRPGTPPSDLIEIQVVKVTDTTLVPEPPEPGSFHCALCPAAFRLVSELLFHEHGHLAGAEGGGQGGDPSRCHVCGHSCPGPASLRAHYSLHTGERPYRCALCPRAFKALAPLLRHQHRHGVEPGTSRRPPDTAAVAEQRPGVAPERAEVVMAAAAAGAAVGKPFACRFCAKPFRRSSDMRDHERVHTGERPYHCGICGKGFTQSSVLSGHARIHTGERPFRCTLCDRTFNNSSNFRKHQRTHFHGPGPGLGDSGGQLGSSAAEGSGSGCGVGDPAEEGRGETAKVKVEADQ
UniProt Q8N4W9: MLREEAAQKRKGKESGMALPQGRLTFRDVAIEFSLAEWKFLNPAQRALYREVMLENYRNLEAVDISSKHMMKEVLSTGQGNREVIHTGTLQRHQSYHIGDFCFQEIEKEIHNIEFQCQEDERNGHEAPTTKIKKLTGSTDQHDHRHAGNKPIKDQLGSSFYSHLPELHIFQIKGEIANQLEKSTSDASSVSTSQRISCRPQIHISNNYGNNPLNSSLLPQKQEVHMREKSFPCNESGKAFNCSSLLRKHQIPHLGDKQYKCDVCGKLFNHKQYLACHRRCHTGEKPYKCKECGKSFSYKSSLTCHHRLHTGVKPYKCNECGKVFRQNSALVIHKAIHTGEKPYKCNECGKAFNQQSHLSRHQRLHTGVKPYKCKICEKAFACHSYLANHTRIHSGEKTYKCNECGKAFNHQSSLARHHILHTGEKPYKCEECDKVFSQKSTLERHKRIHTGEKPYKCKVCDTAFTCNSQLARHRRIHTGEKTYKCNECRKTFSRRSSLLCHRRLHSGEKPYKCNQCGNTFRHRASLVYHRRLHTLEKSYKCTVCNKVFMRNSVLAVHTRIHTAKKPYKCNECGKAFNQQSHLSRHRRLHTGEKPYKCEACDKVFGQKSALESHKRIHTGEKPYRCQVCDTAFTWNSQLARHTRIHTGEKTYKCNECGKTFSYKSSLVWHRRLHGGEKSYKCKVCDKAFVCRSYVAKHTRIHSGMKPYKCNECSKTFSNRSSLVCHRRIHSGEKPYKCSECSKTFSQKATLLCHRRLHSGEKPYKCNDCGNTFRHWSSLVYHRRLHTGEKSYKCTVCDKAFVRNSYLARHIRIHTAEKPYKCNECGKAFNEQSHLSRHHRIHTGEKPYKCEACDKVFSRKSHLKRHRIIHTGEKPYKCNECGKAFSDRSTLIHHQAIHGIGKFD
UniProt Q8N831: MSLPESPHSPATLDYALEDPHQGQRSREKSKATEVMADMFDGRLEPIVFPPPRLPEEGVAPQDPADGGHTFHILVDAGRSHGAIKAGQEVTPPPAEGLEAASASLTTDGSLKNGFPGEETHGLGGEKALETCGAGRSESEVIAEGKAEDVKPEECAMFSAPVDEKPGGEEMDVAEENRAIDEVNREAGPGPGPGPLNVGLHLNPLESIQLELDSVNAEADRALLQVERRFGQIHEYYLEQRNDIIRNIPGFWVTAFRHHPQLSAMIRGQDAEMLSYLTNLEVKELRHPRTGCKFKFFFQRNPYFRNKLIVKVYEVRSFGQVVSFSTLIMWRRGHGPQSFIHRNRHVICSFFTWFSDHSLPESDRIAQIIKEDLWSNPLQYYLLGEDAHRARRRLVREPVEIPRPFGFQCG
UniProt Q8NHV4, whole entry: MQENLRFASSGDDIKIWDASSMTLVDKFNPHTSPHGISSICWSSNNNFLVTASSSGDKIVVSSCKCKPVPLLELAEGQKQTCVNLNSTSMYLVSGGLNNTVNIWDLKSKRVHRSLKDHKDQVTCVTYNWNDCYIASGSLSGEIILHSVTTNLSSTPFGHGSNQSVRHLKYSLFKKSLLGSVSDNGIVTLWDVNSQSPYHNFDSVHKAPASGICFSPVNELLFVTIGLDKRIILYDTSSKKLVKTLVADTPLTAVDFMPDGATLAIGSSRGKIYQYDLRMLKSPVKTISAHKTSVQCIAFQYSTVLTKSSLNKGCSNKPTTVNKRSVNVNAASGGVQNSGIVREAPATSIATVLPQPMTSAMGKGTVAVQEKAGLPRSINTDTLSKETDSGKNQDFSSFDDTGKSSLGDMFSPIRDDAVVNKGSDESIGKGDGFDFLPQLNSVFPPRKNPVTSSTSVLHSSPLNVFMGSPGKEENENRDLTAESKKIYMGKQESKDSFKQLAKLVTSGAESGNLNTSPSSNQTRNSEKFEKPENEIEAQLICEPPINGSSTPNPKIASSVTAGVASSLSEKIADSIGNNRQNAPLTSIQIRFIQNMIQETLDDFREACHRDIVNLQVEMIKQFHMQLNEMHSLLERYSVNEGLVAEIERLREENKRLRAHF
UniProt Q8N6M0: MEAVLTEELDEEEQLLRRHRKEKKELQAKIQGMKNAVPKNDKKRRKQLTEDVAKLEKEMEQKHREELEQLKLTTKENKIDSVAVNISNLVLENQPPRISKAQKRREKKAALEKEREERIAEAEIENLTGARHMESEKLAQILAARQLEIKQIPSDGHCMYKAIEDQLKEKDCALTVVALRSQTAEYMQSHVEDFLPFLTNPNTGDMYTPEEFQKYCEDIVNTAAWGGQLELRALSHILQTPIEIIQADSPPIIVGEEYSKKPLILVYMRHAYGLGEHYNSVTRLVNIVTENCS
UniProt Q8N264: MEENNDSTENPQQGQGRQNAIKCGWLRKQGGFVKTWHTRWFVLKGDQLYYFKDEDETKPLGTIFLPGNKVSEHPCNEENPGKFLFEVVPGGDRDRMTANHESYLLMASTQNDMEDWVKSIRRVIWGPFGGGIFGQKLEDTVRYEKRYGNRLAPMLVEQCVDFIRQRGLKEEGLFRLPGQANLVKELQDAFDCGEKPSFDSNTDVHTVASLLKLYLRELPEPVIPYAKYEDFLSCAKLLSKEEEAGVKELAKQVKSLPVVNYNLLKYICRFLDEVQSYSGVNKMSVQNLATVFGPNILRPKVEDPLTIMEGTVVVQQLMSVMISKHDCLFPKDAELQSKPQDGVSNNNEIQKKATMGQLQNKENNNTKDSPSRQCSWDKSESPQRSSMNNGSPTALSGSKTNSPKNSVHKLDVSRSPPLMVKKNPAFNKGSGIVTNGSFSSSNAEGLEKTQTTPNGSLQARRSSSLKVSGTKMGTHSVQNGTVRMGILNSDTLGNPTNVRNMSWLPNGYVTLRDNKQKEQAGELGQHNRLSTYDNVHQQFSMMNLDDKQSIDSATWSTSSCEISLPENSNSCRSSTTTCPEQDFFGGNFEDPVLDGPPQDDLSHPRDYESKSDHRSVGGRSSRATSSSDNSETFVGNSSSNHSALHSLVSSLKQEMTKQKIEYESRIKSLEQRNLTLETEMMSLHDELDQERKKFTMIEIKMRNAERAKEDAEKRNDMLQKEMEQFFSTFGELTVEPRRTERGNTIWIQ
UniProt Q8N5C8: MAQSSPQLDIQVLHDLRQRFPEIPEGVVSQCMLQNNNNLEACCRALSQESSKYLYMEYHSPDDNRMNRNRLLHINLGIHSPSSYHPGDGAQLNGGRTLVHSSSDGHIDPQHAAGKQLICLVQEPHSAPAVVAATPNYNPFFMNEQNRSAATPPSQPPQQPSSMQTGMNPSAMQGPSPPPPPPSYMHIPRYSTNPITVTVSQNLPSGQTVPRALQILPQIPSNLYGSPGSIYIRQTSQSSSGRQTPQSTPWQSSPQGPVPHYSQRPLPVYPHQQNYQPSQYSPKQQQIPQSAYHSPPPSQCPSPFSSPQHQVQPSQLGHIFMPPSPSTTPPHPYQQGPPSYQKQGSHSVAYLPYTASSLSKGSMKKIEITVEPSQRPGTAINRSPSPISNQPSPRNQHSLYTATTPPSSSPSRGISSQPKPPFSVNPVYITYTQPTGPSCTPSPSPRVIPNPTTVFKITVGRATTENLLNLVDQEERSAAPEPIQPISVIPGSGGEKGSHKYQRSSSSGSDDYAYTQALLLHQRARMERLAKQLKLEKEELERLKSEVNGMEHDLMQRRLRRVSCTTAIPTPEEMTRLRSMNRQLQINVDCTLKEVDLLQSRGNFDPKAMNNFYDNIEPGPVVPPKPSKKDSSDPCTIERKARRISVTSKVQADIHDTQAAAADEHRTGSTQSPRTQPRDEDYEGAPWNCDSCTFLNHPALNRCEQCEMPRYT
UniProt Q8NBS9: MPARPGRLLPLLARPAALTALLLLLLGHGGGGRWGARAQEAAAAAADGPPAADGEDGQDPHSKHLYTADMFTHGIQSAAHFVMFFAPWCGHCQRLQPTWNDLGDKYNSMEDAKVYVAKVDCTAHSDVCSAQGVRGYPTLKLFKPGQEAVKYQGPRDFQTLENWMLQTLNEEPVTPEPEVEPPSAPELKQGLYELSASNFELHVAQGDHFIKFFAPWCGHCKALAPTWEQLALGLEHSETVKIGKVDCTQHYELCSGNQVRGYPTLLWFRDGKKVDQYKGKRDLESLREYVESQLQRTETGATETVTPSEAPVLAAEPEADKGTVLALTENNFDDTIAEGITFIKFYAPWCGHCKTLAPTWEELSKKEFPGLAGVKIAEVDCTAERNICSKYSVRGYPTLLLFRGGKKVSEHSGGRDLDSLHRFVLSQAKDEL
UniProt Q8NB37: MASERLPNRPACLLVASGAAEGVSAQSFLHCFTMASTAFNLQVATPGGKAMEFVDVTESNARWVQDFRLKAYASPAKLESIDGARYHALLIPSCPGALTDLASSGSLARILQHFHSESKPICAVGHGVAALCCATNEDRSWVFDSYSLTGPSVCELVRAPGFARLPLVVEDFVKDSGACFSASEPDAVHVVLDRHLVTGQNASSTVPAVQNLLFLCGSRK
UniProt Q8NC60: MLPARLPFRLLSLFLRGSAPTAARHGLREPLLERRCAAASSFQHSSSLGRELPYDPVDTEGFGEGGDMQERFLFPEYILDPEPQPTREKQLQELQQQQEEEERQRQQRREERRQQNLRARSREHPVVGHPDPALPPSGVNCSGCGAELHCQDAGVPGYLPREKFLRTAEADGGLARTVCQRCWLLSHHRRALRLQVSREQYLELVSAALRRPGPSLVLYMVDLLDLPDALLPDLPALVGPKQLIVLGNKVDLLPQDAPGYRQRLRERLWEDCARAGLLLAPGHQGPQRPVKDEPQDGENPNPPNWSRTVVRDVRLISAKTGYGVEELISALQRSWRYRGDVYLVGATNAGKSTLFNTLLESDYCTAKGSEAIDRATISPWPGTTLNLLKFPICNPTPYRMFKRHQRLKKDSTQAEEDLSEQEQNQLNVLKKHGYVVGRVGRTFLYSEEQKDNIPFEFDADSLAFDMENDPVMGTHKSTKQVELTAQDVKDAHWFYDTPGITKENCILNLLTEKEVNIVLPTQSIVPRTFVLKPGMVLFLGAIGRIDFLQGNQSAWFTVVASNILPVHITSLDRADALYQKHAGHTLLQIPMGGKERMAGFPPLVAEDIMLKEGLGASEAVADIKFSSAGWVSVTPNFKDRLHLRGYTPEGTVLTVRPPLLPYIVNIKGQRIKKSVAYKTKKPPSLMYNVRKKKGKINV
UniProt Q8N3Y1: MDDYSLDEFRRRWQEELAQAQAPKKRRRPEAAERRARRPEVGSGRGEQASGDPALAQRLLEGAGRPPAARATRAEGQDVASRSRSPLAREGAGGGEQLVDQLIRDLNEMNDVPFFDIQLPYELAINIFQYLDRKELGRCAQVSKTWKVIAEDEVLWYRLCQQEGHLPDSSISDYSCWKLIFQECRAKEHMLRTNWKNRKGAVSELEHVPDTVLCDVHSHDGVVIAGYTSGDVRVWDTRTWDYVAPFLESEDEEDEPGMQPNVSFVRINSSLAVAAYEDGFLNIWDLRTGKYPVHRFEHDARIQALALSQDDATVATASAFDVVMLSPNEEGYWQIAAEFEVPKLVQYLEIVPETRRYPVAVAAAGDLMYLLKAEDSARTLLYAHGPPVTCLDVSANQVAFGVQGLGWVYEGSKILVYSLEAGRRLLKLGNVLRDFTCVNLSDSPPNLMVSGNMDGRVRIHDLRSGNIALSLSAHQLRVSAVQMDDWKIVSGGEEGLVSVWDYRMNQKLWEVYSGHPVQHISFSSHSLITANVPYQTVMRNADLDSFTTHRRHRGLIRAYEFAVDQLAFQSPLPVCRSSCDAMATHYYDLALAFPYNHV
UniProt Q8NC96: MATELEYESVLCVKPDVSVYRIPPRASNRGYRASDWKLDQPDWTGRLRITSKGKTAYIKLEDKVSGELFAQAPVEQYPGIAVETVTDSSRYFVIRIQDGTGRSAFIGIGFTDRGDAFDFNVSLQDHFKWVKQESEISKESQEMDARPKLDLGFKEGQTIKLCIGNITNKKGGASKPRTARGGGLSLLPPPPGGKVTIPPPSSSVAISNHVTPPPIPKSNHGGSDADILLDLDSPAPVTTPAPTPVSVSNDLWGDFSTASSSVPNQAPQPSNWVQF

compound: Cc1nc(Nc2ncc(C(=O)Nc3c(C)cccc3Cl)s2)cc(N2CCN(CCO)CC2)n1 [dasatinib]; test: log2 fold change of tryptic peptide abundance, ligand vs vehicle (limited proteolysis) (log2 ratio); higher = more trypsin-susceptible (destabilized); settings: ligand concentration: 5 uM; sample: K562 cleared lysate

Target | log2 fold change
DDX51 (peptide sequence: WLAEPNCVR, peptide start residue: 181) (UniProt Q8N8A6) | -0.148
ZADH2 (peptide sequence: HFLDFQGSAIPQAMQK, peptide start residue: 20) (UniProt Q8N4Q0) | 0.197
DTWD2 (peptide sequence: FSEERDPELSTVCRK, peptide start residue: 131) (UniProt Q8NBA8) | -0.539
FANCB (peptide sequence: VTLTPDSK, peptide start residue: 552) (UniProt Q8NB91) | -0.286
MINDY2 (peptide sequence: DSGLESPAAAEAPLRGQYK, peptide start residue: 89) (UniProt Q8NBR6) | 0.0248
UniProt Q8NCA9 (peptide sequence: CHVCGHSCPGPASLR, peptide start residue: 103) | 0.242
ZNF808 (peptide sequence: NGHEAPTTK, peptide start residue: 123) (UniProt Q8N4W9) | 0.591
ZCCHC24 (peptide sequence: KRCFGEYK, peptide start residue: 164) (UniProt Q8N2G6) | 0.359
CPSF7 (peptide sequence: QEPSPKPNNKTPAILYTYSGLR, peptide start residue: 57) (UniProt Q8N684) | 0.153
ASCC3 (peptide sequence: QFSILPPHILTR, peptide start residue: 1129) (UniProt Q8N3C0) | 0.493
TSPYL6 (peptide sequence: FGQIHEYYLEQR, peptide start residue: 230) (UniProt Q8N831) | 0.127
TSEN2 (peptide sequence: AFTVVQPTFR, peptide start residue: 331) (UniProt Q8NCE0) | -0.312
C2orf69 (peptide sequence: SSPSHTTNGCQGEK, peptide start residue: 221) (UniProt Q8N8R5) | 0.32
EHBP1 (peptide sequence: LNFLDEAEK, peptide start residue: 252) (UniProt Q8NDI1) | 0.541
CBR4 (peptide sequence: DLKEEHLK, peptide start residue: 188) (UniProt Q8N4T8) | 0.404
NEDD1 (peptide sequence: DLTAESKK, peptide start residue: 478) (UniProt Q8NHV4) | -0.421
UniProt Q8NHY2 (peptide sequence: ELSVLEEDIK, peptide start residue: 285) | 0.398
OTUD6B (peptide sequence: KQLTEDVAKLEK, peptide start residue: 46) (UniProt Q8N6M0) | 0.294
HELB (peptide sequence: VYVIAEESQLR, peptide start residue: 923) (UniProt Q8NG08) | -0.297

Target | log2 fold change
UniProt Q8NC44 (peptide sequence: AEANALHHK, peptide start residue: 249) | -0.554
RBM15B (peptide sequence: NLFIGNLDHSVSEVELR, peptide start residue: 338) (UniProt Q8NDT2) | -0.503
UniProt Q8NBJ5 (peptide sequence: ALQAQEIECR, peptide start residue: 361) | 0.35
SUPT20H (peptide sequence: AGNCVDMWK, peptide start residue: 286) (UniProt Q8NEM7) | -0.369
ARHGAP24 (peptide sequence: QKIEYESR, peptide start residue: 658) (UniProt Q8N264) | -0.632
TAB3 (peptide sequence: LKSEVNGMEHDLMQR, peptide start residue: 543) (UniProt Q8N5C8) | -0.643
SIDT2 (peptide sequence: ACPESGHPR, peptide start residue: 334) (UniProt Q8NBJ9) | 0.184
GUF1 (peptide sequence: NMIFIDQNR, peptide start residue: 501) (UniProt Q8N442) | 0.331
TXNDC5 (peptide sequence: LFKPGQEAVK, peptide start residue: 141) (UniProt Q8NBS9) | -0.557
UniProt Q8NB37 (peptide sequence: LPLVVEDFVK, peptide start residue: 165) | -0.065
STK11IP (peptide sequence: FSYICPDR, peptide start residue: 618) (UniProt Q8N1F8) | -0.392
WDR36 (peptide sequence: VVNLGVLAQK, peptide start residue: 815) (UniProt Q8NI36) | 0.432
JMY (peptide sequence: RVSSPMDEVLASLKR, peptide start residue: 886) (UniProt Q8N9B5) | -0.835
UniProt Q8N972 (peptide sequence: MHTGEKPYK, peptide start residue: 517) | 0.815
UniProt Q8NC60 (peptide sequence: TKKPPSLMYNVR, peptide start residue: 679) | 0.225
FBXW8 (peptide sequence: SGNIALSLSAHQLR, peptide start residue: 464) (UniProt Q8N3Y1) | -0.22
NECAP1 (peptide sequence: ESQEMDARPK, peptide start residue: 139) (UniProt Q8NC96) | 0.105
KMT2C (peptide sequence: KDGASPFQR, peptide start residue: 42) (UniProt Q8NEZ4) | -0.309

Quoted from the listing:
log2 fold change, JMY (peptide sequence: RVSSPMDEVLASLKR, peptide start residue: 886) (UniProt Q8N9B5) reads -0.835
log2 fold change, TAB3 (peptide sequence: LKSEVNGMEHDLMQR, peptide start residue: 543) (UniProt Q8N5C8) reads -0.643
